This assay addresses T1, Tc24-WT_(3CS1) Tag-less (Trypanosoma cruzi), P07749.
T1 chain: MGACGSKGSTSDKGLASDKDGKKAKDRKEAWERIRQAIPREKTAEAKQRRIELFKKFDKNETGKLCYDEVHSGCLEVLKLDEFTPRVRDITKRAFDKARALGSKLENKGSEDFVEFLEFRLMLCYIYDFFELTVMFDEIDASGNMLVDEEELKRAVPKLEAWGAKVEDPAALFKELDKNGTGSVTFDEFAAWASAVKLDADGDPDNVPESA
Kind of assay: SEC-MALS. The note with it: remark: other sources report otherwise.

These are yes or no findings as the source states them, for the method shown. Sequences can lack the tags named with a protein.

B1: Tc24-WT_(3CS1) Tag-less, P07749 1-211 (protein)
chain: T1 chain
As for B1, the binding result is given as “no binding”.

The values are drawn from publication doi:10.1101/2025.08.23.671862.
